{"source": "PubChem BioAssay AID504834", "about": "(National Center for Advancing Translational Sciences (NCATS), 2011)", "note": "About 22,000 (6.9%) of roughly 320,000 compounds were called active. Inconclusive results, whose numbers are uncertain, are shown with a selection of clear calls. The call rests on the fitted dose curve; in most records, active means well fitted inhibition curve with a large enough effect; inconclusive means small, poorly fitted or top-dose-only effect, or another doubt; inactive means no such curve, though single readings can be large or run the other way. A potency beside an inconclusive call is a rough fit, not a confirmed value. On the % scale 0 is the no-effect control and ±100 the full control effect; potency means the concentration at half of the fitted maximal effect.", "data": [{"assay": "Primary qHTS for delayed death inhibitors of the malarial parasite plastid, 96 hour incubation", "conditions": "P. falciparum luciferase reporter growth; series mostly up to 28.7 µM; activity change, negative = inhibition: at the top concentration", "how_it_was_run": "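Two-generation exposure (96 h) targets delayed-death phenotype. Reporter parasites carrying integrated firefly luciferase, in red cells at 2% hematocrit and 0.05% parasitemia final, kept at 37 C, 5% CO2; luminescence loss indicates inhibition.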", "values": [{"smiles": "CC1CN(c2ccc([N+](=O)[O-])cn2)CC(C)O1", "note": "(stereo unspecified)", "activity change, negative = inhibition": "inactive: 5.78%"}, {"smiles": "CCOC1(OCC)N=C(N)C2(C#N)C(c3cccc(C)c3)C12C#N", "note": "(stereo unspecified)", "Potency": "inconclusive: 10.4 µM [inhibitor, single point]"}, {"smiles": "O=C1/C(=C\\c2ccco2)SC(=S)N1c1ccccc1", "activity change, negative = inhibition": "inactive: 35.8%"}, {"smiles": "Cc1ccc(S(=O)(=O)N(C)C)cc1-n1c(SCC(=O)Nc2ccc(F)c(F)c2F)nc2ccccc2c1=O", "Potency": "inconclusive: 9.28 µM [inhibitor, partial curve, poor fit]"}, {"smiles": "CCOC(=O)C(Cc1ccccc1)NC(=O)CCc1c(C)nc2ncnn2c1C", "note": "(stereo unspecified)", "activity change, negative = inhibition": "inactive: 22%"}, {"smiles": "CCOC(=O)CNC(=O)CSc1nc(N)cc(N)n1", "Potency": "active: 10.4 µM"}, {"smiles": "CCOc1ccc(NS(=O)(=O)c2ccc3c(c2)N(C(C)=O)CCS3)cc1", "activity change, negative = inhibition": "inactive: -23.3%"}, {"smiles": "CNC(=O)c1nc(C)n(-c2cc(Cl)ccc2Cl)n1", "activity change, negative = inhibition": "inactive: -12.6%"}, {"smiles": "Cc1ccccc1N(C(=O)c1snc(C(N)=O)c1N)C(C(=O)NCC1CCCO1)c1ccc(F)cc1", "note": "(stereo unspecified)", "activity change, negative = inhibition": "inactive: 1.21%"}, {"smiles": "COc1ccc(C(=O)/C(=C\\c2sccc2C)c2nc3ccccc3o2)cc1", "Potency": "active: 3.29 µM"}, {"smiles": "COc1ccc(Cl)cc1CN1C(=O)NC2(CCCCCC2)C1=O", "Potency": "inconclusive: 11.7 µM [inhibitor, single point]"}, {"smiles": "Cn1c(SCc2cc([N+](=O)[O-])cc3c2OCOC3)nnc1-c1ccccn1", "Potency": "inconclusive: 4.15 µM [inhibitor, single point]"}, {"smiles": "CC(c1nnc(SCC(=O)N(C)C2CCS(=O)(=O)C2)n1-c1ccccc1)N(C)C", "note": "(stereo unspecified)", "activity change, negative = inhibition": "inactive: 32.8%"}, {"smiles": "COC(=O)c1ccc(N2CCN(C(=O)C3CC3)CC2)c([N+](=O)[O-])c1", "Potency": "inconclusive: 18.5 µM [inhibitor, single point]"}, {"smiles": "COc1ccccc1-c1nnc(SCC(=O)O)n1C", "Potency": "inconclusive: 11.7 µM [inhibitor, single point]"}, {"smiles": "COc1ccc(C2=NNC(c3cccs3)=Nc3ccc(OC)cc32)cc1", "activity change, negative = inhibition": "inactive: -17.2%"}, {"smiles": "O=C(Nc1cccc(Cl)c1Cl)c1snnc1-c1ccccc1", "activity change, negative = inhibition": "inactive: 95.1%"}, {"smiles": "COc1ccc(Br)cc1/C=C/C(=O)NC(=S)Nc1ccc(CN2CCOCC2)cc1", "Potency": "inconclusive: 10.4 µM [inhibitor, partial curve, poor fit]"}, {"smiles": "CCCCCCn1c(SCCC)nc2c1c(=O)[nH]c(=O)n2C", "Potency": "inconclusive: 1.04 µM [inhibitor, partial curve, poor fit]"}, {"smiles": "CS(=O)(=O)c1ccc(C(=O)OCC(=O)NC23CC4CC(CC(C4)C2)C3)cc1[N+](=O)[O-]", "activity change, negative = inhibition": "inactive: -1.45%"}, {"smiles": "Cc1ccn(C(C)CC(=O)N2CCc3ccccc32)n1", "note": "(stereo unspecified)", "activity change, negative = inhibition": "inactive: 67.4%"}, {"smiles": "Cc1ccc(C)c(-n2cc(CNC(C)Cn3cncn3)c(-c3ccccc3)n2)c1", "note": "(stereo unspecified)", "Potency": "inconclusive: 11.7 µM [inhibitor, partial curve, poor fit]"}, {"smiles": "Cc1ccc2cc(C3C(C#N)=C(N)Oc4c3ccc3cccnc43)c(=O)[nH]c2c1", "note": "(stereo unspecified)", "Potency": "active: 2.62 µM"}, {"smiles": "COc1ccc(C2SCC(=O)Nc3c2c(C)nn3-c2ccccc2)cc1OC", "note": "(stereo unspecified)", "activity change, negative = inhibition": "inactive: 14.4%"}, {"smiles": "COc1ccc(-c2cc(C(=O)N3CCCCC3)c3ccccc3n2)cc1OC", "Potency": "inconclusive: 0.329 µM [inhibitor, partial curve, poor fit]"}, {"smiles": "COc1ccc(C(CC(=O)NCc2ccccc2)Sc2n[nH]c(-c3ccccc3)n2)cc1", "note": "(stereo unspecified)", "Potency": "inconclusive: 5.22 µM [inhibitor, partial curve]"}, {"smiles": "CC(=O)c1cccc(NC(=O)CN(c2ccccc2)S(C)(=O)=O)c1", "Potency": "inconclusive: 10.4 µM [inhibitor, single point]"}, {"smiles": "COc1ccc(OC)c(C2C3CN(C(C)C)CC=C3C(C#N)=C(N)C2(C#N)C#N)c1", "note": "(stereo unspecified)", "Potency": "inconclusive: 8.28 µM [inhibitor, partial curve, poor fit]"}, {"smiles": "CC(C)(CO)NCc1c(OCc2ccc(Cl)cc2)ccc2ccccc12", "Potency": "active: 4.15 µM"}, {"smiles": "COc1ccc(NS(=O)(=O)c2cccc(C(=O)NCC(c3ccccc3OC)N3CCCC3)c2)cc1", "note": "(stereo unspecified)", "Potency": "inconclusive: 18.5 µM [inhibitor, single point]"}, {"smiles": "Cc1cc(C(=O)NC2CCCc3c2cnn3-c2ccc(C)c(C)c2)n(C)n1", "note": "(stereo unspecified)", "Potency": "inconclusive: 11.7 µM [inhibitor, single point]"}, {"smiles": "Cn1cc(C(=O)NCc2ccc(Cl)cc2)c(=O)c2cc(S(=O)(=O)N3CCOCC3)ccc21", "activity change, negative = inhibition": "inactive: 6.11%"}, {"smiles": "O=C(CCN1C(=O)/C(=C/c2ccc3c(c2)OCO3)SC1=S)Nc1ccccc1", "Potency": "inconclusive: 13.1 µM [inhibitor, single point]"}, {"smiles": "CCN(C(=O)COC(=O)c1cc([N+](=O)[O-])ccc1N1CCOCC1)C1CCCCC1", "Potency": "inconclusive: 18.5 µM [inhibitor, single point]"}, {"smiles": "COc1ccccc1NC(=O)Nc1cnccn1", "Potency": "inconclusive: 0.828 µM [inhibitor, full curve]"}, {"smiles": "COc1cc2cc(C)c(SCC(=O)N3CCOCC3)nc2cc1OC", "Potency": "inconclusive: 13.1 µM [inhibitor, single point]"}, {"smiles": "O=C(c1ccc(F)cc1)N1CCC2(CC1)OCCO2", "Potency": "inconclusive: 18.5 µM [inhibitor, single point]"}, {"smiles": "COc1ccc(C(=O)CN2C(=O)c3ccccc3S2(=O)=O)cc1", "activity change, negative = inhibition": "inactive: 75.6%"}, {"smiles": "COc1ccc(C(=O)CCC(=O)NCCc2c[nH]c3ccccc23)cc1", "Potency": "inconclusive: 1.47 µM [inhibitor, partial curve, poor fit]"}, {"smiles": "O=C(NCC(c1ccco1)N1CCN(c2ccccc2F)CC1)c1ccco1", "note": "(stereo unspecified)", "activity change, negative = inhibition": "inactive: 7.73%"}, {"smiles": "COc1ccc(/C=N/Nc2cc(N3CCOCC3)nc(C)n2)c(OC)c1", "activity change, negative = inhibition": "inactive: -10.6%"}, {"smiles": "COc1ccc(CN(CC2CCC(C(=O)O)CC2)C(=S)Nc2cc(Cl)ccc2OC)cc1", "note": "(stereo unspecified)", "activity change, negative = inhibition": "inactive: 21.5%"}, {"smiles": "COc1ccc(CC(=O)N/N=C/c2cc(Br)cs2)cc1OC", "Potency": "inconclusive: 18.5 µM [inhibitor, single point]"}, {"smiles": "O=C(Nc1cccnc1)c1cc(-c2ccc(F)cc2)on1", "Potency": "inconclusive: 6.57 µM [inhibitor, partial curve, poor fit]"}, {"smiles": "Cc1cc(S(=O)(=O)N2CCCOC2CNC(=O)C(=O)NCc2cccs2)ccc1F", "note": "(stereo unspecified)", "Potency": "inconclusive: 9.28 µM [inhibitor, partial curve, poor fit]"}, {"smiles": "Cn1c(=O)c2c(nc(SCCN3CCOCC3)n2Cc2cccc3ccccc23)n(C)c1=O", "Potency": "inconclusive: 18.5 µM [inhibitor, partial curve, poor fit]"}]}]}
